PubChem BioAssay AID1159594, NIAID – 2016
The whole screen tested 756 reagents; shown is an unselected part. In the full data, 130 (17%) are marked active. 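Active calls cover both falls and rises of reporter activity; each row reflects one siRNA, not a gene-level verdict.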 Entries without a mark were called inactive. Reagents against one gene are numbered here. The record does not give: the amount of reagent.

- Aim: 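Which core toll-like receptor signalling genes are needed for TNF promoter activation by Pam2CSK4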
- Cells: human THP-1 B5 reporter cells, PMA-differentiated into macrophage-like cells
- Reagent: single siRNA against human genes
- Duration: 48 to 72 hours after siRNA transfection; ligand exposure 4 hours
- Conditions: Pam2CSK4 (TLR2/6 agonist) stimulation for 4 hours before lysis; dose not given
- Detection: 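TNF promoter reporter signal as firefly to renilla luciferase ratio, scaled per plate by median and MAD, given as robust z-score against negative controls, averaged across replicates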
- Reading the numbers: TNF reporter z-score: higher = stronger TNF promoter reporter activity
- Call rule: 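The depositor sorts siRNAs into z-score bands with cut-offs of 2.5, 2, 1.5 and 1; grade 50 and above, meaning |z| of 1.5 or more, counts as active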
- Meaning of the calls: active = z-score beyond ±1.5 (either direction); inactive = z-score within ±1.5

After knock-down of PIK3R2 (phosphoinositide-3-kinase regulatory subunit 2) #1 the results were TNF reporter z-score, replicate mean 0.928. Silencing of PIK3R2 (phosphoinositide-3-kinase regulatory subunit 2) #2 came out at: TNF reporter z-score, replicate mean -1.29. With knock-down of PIK3R2 (phosphoinositide-3-kinase regulatory subunit 2) #3, the screen gave TNF reporter z-score, replicate mean 0.0503. After knock-down of PIK3R2 (phosphoinositide-3-kinase regulatory subunit 2) #4 the results were TNF reporter z-score, replicate mean -0.534. Against PIK3R2 (phosphoinositide-3-kinase regulatory subunit 2) #5, the values are TNF reporter z-score, replicate mean -0.936. For PIK3R2 (phosphoinositide-3-kinase regulatory subunit 2) #6, the entry reads TNF reporter z-score, replicate mean -1.01.

ETS1 (ETS proto-oncogene 1, transcription factor) #1 showed TNF reporter z-score, replicate mean -0.22. Depletion of ETS1 (ETS proto-oncogene 1, transcription factor) #2 gave: TNF reporter z-score, replicate mean -1.35. Knock-down of ETS1 (ETS proto-oncogene 1, transcription factor) #3 resulted in: TNF reporter z-score, replicate mean -0.617. Knock-down of ETS1 (ETS proto-oncogene 1, transcription factor) #4 resulted in: TNF reporter z-score, replicate mean -0.0105. For ETS1 (ETS proto-oncogene 1, transcription factor) #5, the values are TNF reporter z-score, replicate mean 0.885. Knock-down of ETS1 (ETS proto-oncogene 1, transcription factor) #6 came out at: TNF reporter z-score, replicate mean -1.54 (active).

For TICAM1 (TIR domain containing adaptor molecule 1) #1, the entry reads TNF reporter z-score, replicate mean -0.206. For TICAM1 (TIR domain containing adaptor molecule 1) #2, the values are TNF reporter z-score, replicate mean 0.0623. TICAM1 (TIR domain containing adaptor molecule 1) #3 showed TNF reporter z-score, replicate mean 0.275. TICAM1 (TIR domain containing adaptor molecule 1) #4 scored TNF reporter z-score, replicate mean -2.75 (active). TICAM1 (TIR domain containing adaptor molecule 1) #5 gave TNF reporter z-score, replicate mean -1.17. TICAM1 (TIR domain containing adaptor molecule 1) #6 gave TNF reporter z-score, replicate mean -0.939.

3 entries from above in another layout.
ETS1 (ETS proto-oncogene 1, transcription factor) #5
- TNF reporter z-score, replicate mean: 0.885

ETS1 (ETS proto-oncogene 1, transcription factor) #6
- TNF reporter z-score, replicate mean: -1.54 (active)

TICAM1 (TIR domain containing adaptor molecule 1) #1
- TNF reporter z-score, replicate mean: -0.206

Further results:
Depletion of IRAK1 (interleukin 1 receptor associated kinase 1) #1 came out at: TNF reporter z-score, replicate mean -1.7 (active). With knock-down of IRAK1 (interleukin 1 receptor associated kinase 1) #2 the results were TNF reporter z-score, replicate mean -2.35 (active). Knock-down of IRAK1 (interleukin 1 receptor associated kinase 1) #3 resulted in: TNF reporter z-score, replicate mean -3.02 (active). IRAK1 (interleukin 1 receptor associated kinase 1) #4 gave TNF reporter z-score, replicate mean -0.458. Against IRAK1 (interleukin 1 receptor associated kinase 1) #5, the entry reads TNF reporter z-score, replicate mean -3.72 (active). After knock-down of IRAK1 (interleukin 1 receptor associated kinase 1) #6, the screen gave TNF reporter z-score, replicate mean -4.03 (active).

IRF5 (interferon regulatory factor 5) #1 showed TNF reporter z-score, replicate mean -3.88 (active). For IRF5 (interferon regulatory factor 5) #2, the values are TNF reporter z-score, replicate mean 0.473. For IRF5 (interferon regulatory factor 5) #3 the deposit lists TNF reporter z-score, replicate mean -1.68 (active). Against IRF5 (interferon regulatory factor 5) #4, the entry reads TNF reporter z-score, replicate mean 0.0164. For IRF5 (interferon regulatory factor 5) #5 the deposit lists TNF reporter z-score, replicate mean -1.09. For IRF5 (interferon regulatory factor 5) #6 the deposit lists TNF reporter z-score, replicate mean -1.43.

NFKBIB (NFKB inhibitor beta) #1 scored TNF reporter z-score, replicate mean -0.619. With knock-down of NFKBIB (NFKB inhibitor beta) #2, the record shows TNF reporter z-score, replicate mean -0.794. Against NFKBIB (NFKB inhibitor beta) #3, the entry reads TNF reporter z-score, replicate mean -1.19. NFKBIB (NFKB inhibitor beta) #4 gave TNF reporter z-score, replicate mean -0.244. With knock-down of NFKBIB (NFKB inhibitor beta) #5, the record shows TNF reporter z-score, replicate mean 0.391. With knock-down of NFKBIB (NFKB inhibitor beta) #6 the results were TNF reporter z-score, replicate mean -0.162.

CREBBP (CREB binding lysine acetyltransferase) #1 showed TNF reporter z-score, replicate mean -0.358. For CREBBP (CREB binding lysine acetyltransferase) #2, the entry reads TNF reporter z-score, replicate mean 0.0469. CREBBP (CREB binding lysine acetyltransferase) #3 showed TNF reporter z-score, replicate mean -0.277. Against CREBBP (CREB binding lysine acetyltransferase) #4 the deposit lists TNF reporter z-score, replicate mean 0.546. With knock-down of CREBBP (CREB binding lysine acetyltransferase) #5, the record shows TNF reporter z-score, replicate mean 0.6. Depletion of CREBBP (CREB binding lysine acetyltransferase) #6 came out at: TNF reporter z-score, replicate mean 0.0678.

Silencing of IL12A (interleukin 12A) #1 came out at: TNF reporter z-score, replicate mean 0.34. With knock-down of IL12A (interleukin 12A) #2, the screen gave TNF reporter z-score, replicate mean -1.05. After knock-down of IL12A (interleukin 12A) #3, the record shows TNF reporter z-score, replicate mean 0.62. IL12A (interleukin 12A) #4 showed TNF reporter z-score, replicate mean 0.449. IL12A (interleukin 12A) #5 scored TNF reporter z-score, replicate mean -0.97. After knock-down of IL12A (interleukin 12A) #6 the results were TNF reporter z-score, replicate mean -0.635.
